# From PubChem BioAssay AID504834 (National Center for Advancing Translational Sciences (NCATS), 2011)
# Among all 320,000 compounds or so, about 22,000 (6.9%) were called active. Inconclusive results, whose numbers are uncertain, are shown with a selection of clear calls. The call rests on the fitted dose curve; in most records, active means well fitted inhibition curve with a large enough effect; inconclusive means small, poorly fitted or top-dose-only effect, or another doubt; inactive means no such curve, though single readings can be large or run the other way. Potencies beside an inconclusive call are fits to weak or partial responses and may not hold up.
# Experiment: Primary qHTS for delayed death inhibitors of the malarial parasite plastid, 96 hour incubation
# Conditions: P. falciparum luciferase reporter growth; series mostly up to 28.7 µM; activity change, negative = inhibition: at the top concentration
# Summary of the method: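 Plates of compound plus infected erythrocytes (2% hematocrit, 0.05% parasitemia final) incubate 96 hours, 37 C, 5% CO2. Detection reagent added; reduced luminescence from the parasites' luciferase reporter flags inhibition.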
# On the % scale 0 is the no-effect control and ±100 the full control effect; potency means the concentration at half of the fitted maximal effect.
SMILES,Potency,"activity change, negative = inhibition"
O=C(C1=C[C@@H]2[C@H]3C(=O)N(c4ccc(Cl)cc4)C(=O)[C@H]3[C@@H](C(=O)c3ccc(Cl)cc3)N2C=C1)c1ccccc1,"inconclusive: 18.5 µM [inhibitor, single point]",–
Cc1cc(CN2CCC(n3nccc3NC(=O)c3ccccc3C)CC2)n[nH]1,"inconclusive: 18.5 µM [inhibitor, single point]",–
COC(=O)C1Cc2c([nH]c3ccccc23)C2(CCN(Cc3ccccc3)CC2)N1 (centres undefined),"inconclusive: 14.7 µM [inhibitor, single point]",–
COC(=O)c1sccc1S(=O)(=O)Nc1ccc(C)cc1,–,inactive: -21%
O=C(/C=C1\NC2(CCCC2)Cc2ccccc21)C(=O)N/N=C/c1ccccc1O,–,inactive: 0%
CCOC(=O)N1CCN(C(=O)CSc2nnc(CNC(=O)c3ccccc3F)o2)CC1,–,inactive: -13%
COc1ccccc1CC(=O)Nc1cccc(F)c1,"inconclusive: 18.5 µM [inhibitor, single point]",–
O=C1C=C(Nc2ccccc2)CC(c2ccccc2)C1 (centres undefined),active: 1.85 µM,–
COc1ccccc1N(C)S(=O)(=O)c1ccc(C(=O)OCC(=O)NCCC2=CCCCC2)cc1,–,inactive: 4.4%
COc1ccc(/C(N)=N/OC(=O)c2ccco2)cc1OC,"inconclusive: 0.104 µM [inhibitor, full curve, poor fit]",–
Cc1cccc(C)c1OCC(=O)Nc1cc(Cl)ccc1-n1cncn1,active: 13.1 µM,–
COC(=O)c1cc(-c2ccccc2)n[nH]1,–,inactive: -2.33% [at 5.75 µM]
COC(=O)CSc1ncccc1-c1nc2ccccc2[nH]1,"inconclusive: 10.4 µM [inhibitor, single point]",–
Cc1sc2nc(CN3CCCCC3)nc(Cl)c2c1C,"inconclusive: 14.7 µM [inhibitor, single point]",–
Cc1ccc(C)c(SCc2nc3sc(C(=O)O)c(C)c3c(=O)[nH]2)c1,–,inactive: 15.7%
CCCN1C(=O)c2ccccc2NC1c1ccc(Br)cc1 (centres undefined),–,inactive: -1.42%
COc1cc(OC)cc(-c2nnc(SCC(=O)Nc3cccc(C(=O)O)c3)s2)c1,–,inactive: 60.5%
CCOC(=O)C1CCN(C(=O)c2ccc(CNS(=O)(=O)c3ccc(C)cc3)cc2)CC1,"inconclusive: 13.1 µM [inhibitor, single point]",–
Cc1nn(CC(=O)N2CCN(C)CC2)c(=O)c2ccccc12,active: 7.38 µM,–
CCC(=O)N1CC2(CC(c3cccc([N+](=O)[O-])c3)=NO2)C[C@H]1C(=O)NCC(N)=O (some centres undefined),–,inactive: 23.5%
CCOc1ccccc1N1CCN(C(=O)c2ccc(NS(=O)(=O)c3ccc4[nH]c(=O)[nH]c4c3)cc2)CC1,"inconclusive: 18.5 µM [inhibitor, single point]",–
COC(=O)C1=C(c2ccc3ccccc3c2)C[C@@H]2CC[C@H]1N2C(=O)NC1CCCCC1,"inconclusive: 10.4 µM [inhibitor, partial curve, poor fit]",–
Nc1nc(N)nc(-c2cc([N+](=O)[O-])ccc2O)n1,active: 2.08 µM,–
CC(C)CC(NC(=O)c1ccc(Cl)cc1)C(=O)OCc1cc([N+](=O)[O-])cc2c1OCOC2 (centres undefined),–,inactive: -4.31%
O=C(O)CC1Sc2ccccc2NC1=O (centres undefined),"inconclusive: 10.4 µM [inhibitor, single point]",–

SMILES,Potency,"activity change, negative = inhibition"
O=C(O)c1ccc(N/N=C/c2ccc(OC(=O)c3cccc(Cl)c3)cc2)cc1,–,inactive: 241%
Cc1cccc(C(=O)NCC(c2ccco2)N2CCc3ccccc32)c1 (centres undefined),"inconclusive: 10.4 µM [inhibitor, single point]",–
C=CCn1c(SCc2nc3cc(C(=O)OC)ccc3c(=O)[nH]2)nc2sc(CC)cc2c1=O,"inconclusive: 18.5 µM [inhibitor, single point]",–
COCCn1c(-c2ccsc2)nc2c1c(=O)[nH]c(=O)n2CC(C)C,"inconclusive: 1.85 µM [inhibitor, full curve, poor fit]",–
Cc1ccc(S(=O)(=O)N(C)C)cc1NC(=O)c1ccc(OC(F)(F)F)cc1,–,inactive: 22.8%
COc1ccc(/C=C2\N=C(c3ccccc3)N(c3ccc(C(=O)O)cc3)C2=O)cc1OC,"inconclusive: 11.7 µM [inhibitor, single point]",–
CN(C(=O)c1sc2nc(N3CCCC3)c3c(c2c1N)CC(C)(C)OC3)c1ccccc1,"inconclusive: 10.4 µM [inhibitor, single point]",–
Cc1ccc(SC(C)C(=O)N2CCN(c3ccccc3)CC2)cc1 (centres undefined),active: 8.28 µM,–
O=c1nc(-c2ccccc2)n(-c2ccccc2)c2ncccc12,"inconclusive: 4.15 µM [inhibitor, single point]",–
CCCCn1c(N)c(N(Cc2ccccc2)C(=O)COc2ccccc2F)c(=O)[nH]c1=O,–,inactive: -1.1%
O=C(C1=C[C@H](c2ccc3c(c2)OCO3)C[C@H](OCc2ccc(CO)cc2)O1)N1CCCCCCC1,"inconclusive: 9.28 µM [inhibitor, partial curve]",–
COc1cc(CNCc2cccc(OC)c2OC)cc(OC)c1,–,inactive: -8.71%
CN(C(=O)CSc1nncn1-c1ccccc1)C1CCS(=O)(=O)C1 (centres undefined),–,inactive: 15.4%
CCc1ccc(CNc2ccc(N3CCN(C(C)=O)CC3)cc2)cc1,–,inactive: -1.16%
COc1cccc(NC(=O)CSc2nnc3cc(C)nc(N)n23)c1,"inconclusive: 18.5 µM [inhibitor, single point]",–
N#CC1=C(N)OC2=C(CCc3ccccc32)C1c1ccccc1Cl (centres undefined),"inconclusive: 11.7 µM [inhibitor, single point]",–
COC(=O)c1ccc2c(c1O)C(=O)c1ccccc1C2=O,active: 4.15 µM,–
Cc1[nH]c2ccccc2c1CCNC(=O)CCC(=O)c1ccccc1,"inconclusive: 0.329 µM [inhibitor, full curve]",–
C=CCNCC(O)COc1ccc(C(C)=O)cc1OC (centres undefined),"inconclusive: 0.117 µM [inhibitor, full curve, poor fit]",–
COc1ccc(CCNC(=O)CC(C)(C)CC2=NS(=O)(=O)c3ccccc3N2)cc1OC,"inconclusive: 18.5 µM [inhibitor, single point]",–
O=C(NCc1ccco1)C1CCCN1C(=O)Nc1ccccc1 (centres undefined),"inconclusive: 18.5 µM [inhibitor, single point]",–
Cc1cc(OCC(=O)N(C)Cc2ccccc2)ccc1Cl,"inconclusive: 3.29 µM [inhibitor, single point]",–
COc1cc(CC(=O)OCC(=O)N2CC(=O)Nc3ccccc32)cc(OC)c1OC,"inconclusive: 3.29 µM [inhibitor, single point]",–
CCc1c(C)sc(NC(NC(C)=O)(C(=O)OC)C(F)(F)F)c1C#N (centres undefined),"inconclusive: 10.4 µM [inhibitor, partial curve, poor fit]",–
CCCc1ccc(C(=O)NNc2ccccc2F)cc1,–,inactive: 46.6%

# Compounds above containing a carbonyl joined to an NH by a bond outside any ring, in the order listed:
SMILES,Potency,"activity change, negative = inhibition"
Cc1cc(CN2CCC(n3nccc3NC(=O)c3ccccc3C)CC2)n[nH]1,"inconclusive: 18.5 µM [inhibitor, single point]",–
O=C(/C=C1\NC2(CCCC2)Cc2ccccc21)C(=O)N/N=C/c1ccccc1O,–,inactive: 0%
CCOC(=O)N1CCN(C(=O)CSc2nnc(CNC(=O)c3ccccc3F)o2)CC1,–,inactive: -13%
COc1ccccc1CC(=O)Nc1cccc(F)c1,"inconclusive: 18.5 µM [inhibitor, single point]",–
COc1ccccc1N(C)S(=O)(=O)c1ccc(C(=O)OCC(=O)NCCC2=CCCCC2)cc1,–,inactive: 4.4%
Cc1cccc(C)c1OCC(=O)Nc1cc(Cl)ccc1-n1cncn1,active: 13.1 µM,–
COc1cc(OC)cc(-c2nnc(SCC(=O)Nc3cccc(C(=O)O)c3)s2)c1,–,inactive: 60.5%
CCC(=O)N1CC2(CC(c3cccc([N+](=O)[O-])c3)=NO2)C[C@H]1C(=O)NCC(N)=O (some centres undefined),–,inactive: 23.5%
COC(=O)C1=C(c2ccc3ccccc3c2)C[C@@H]2CC[C@H]1N2C(=O)NC1CCCCC1,"inconclusive: 10.4 µM [inhibitor, partial curve, poor fit]",–
CC(C)CC(NC(=O)c1ccc(Cl)cc1)C(=O)OCc1cc([N+](=O)[O-])cc2c1OCOC2 (centres undefined),–,inactive: -4.31%
Cc1cccc(C(=O)NCC(c2ccco2)N2CCc3ccccc32)c1 (centres undefined),"inconclusive: 10.4 µM [inhibitor, single point]",–
Cc1ccc(S(=O)(=O)N(C)C)cc1NC(=O)c1ccc(OC(F)(F)F)cc1,–,inactive: 22.8%
COc1cccc(NC(=O)CSc2nnc3cc(C)nc(N)n23)c1,"inconclusive: 18.5 µM [inhibitor, single point]",–
Cc1[nH]c2ccccc2c1CCNC(=O)CCC(=O)c1ccccc1,"inconclusive: 0.329 µM [inhibitor, full curve]",–
COc1ccc(CCNC(=O)CC(C)(C)CC2=NS(=O)(=O)c3ccccc3N2)cc1OC,"inconclusive: 18.5 µM [inhibitor, single point]",–
O=C(NCc1ccco1)C1CCCN1C(=O)Nc1ccccc1 (centres undefined),"inconclusive: 18.5 µM [inhibitor, single point]",–
CCc1c(C)sc(NC(NC(C)=O)(C(=O)OC)C(F)(F)F)c1C#N (centres undefined),"inconclusive: 10.4 µM [inhibitor, partial curve, poor fit]",–
CCCc1ccc(C(=O)NNc2ccccc2F)cc1,–,inactive: 46.6%

# Carrying on.

SMILES,Potency,"activity change, negative = inhibition"
COc1ccc(NC(=O)/C(C#N)=C/c2ccc(Sc3nncn3C)c([N+](=O)[O-])c2)cc1,"inconclusive: 2.62 µM [inhibitor, full curve]",–
COCCN1C(=O)N(c2ccc(Cl)cc2)C(=O)C1CC(=O)Nc1cc(OC)cc(OC)c1 (centres undefined),–,inactive: -17%
O=C(c1cccs1)N1CCC(C(=O)N2CCN(Cc3ccc4c(c3)OCO4)CC2)CC1,–,inactive: 23.5%
COC(=O)C1=C(C)NC(=O)NC1c1ccc(OC(=O)c2ccco2)cc1 (centres undefined),"inconclusive: 11.7 µM [inhibitor, single point]",–
CCn1cc(S(=O)(=O)NCc2ccc3c(c2)OCO3)cn1,active: 11.7 µM,–
COc1ccc(S(=O)(=O)N2CCCC2)cc1NC(=O)c1ccccc1F,–,inactive: 0.135%
Cc1nnc2c(N3CCN(CCO)CC3)nc3ccccc3n12,active: 13.1 µM,–
COc1cccc(NC(=O)Cc2nnc(SCC(=O)NC3=NCCS3)n2C)c1,–,inactive: 17%
CC(NC(=O)C1CCCCC1)C(c1cccs1)N1CCOCC1 (centres undefined),"inconclusive: 9.28 µM [inhibitor, single point]",–
COCCN(C(=S)Nc1c(C)cc(C)cc1C)C(C)c1cccs1 (centres undefined),"inconclusive: 11.7 µM [inhibitor, single point]",–
Cc1cc(C)c(OCC(=O)OC(C)C(=O)N2CCc3ccccc32)c(C)c1 (centres undefined),"inconclusive: 18.5 µM [inhibitor, single point]",–
Cc1ccccc1CN1CCC(Oc2ccc(C(=O)N3CCCC3)cc2)CC1,–,inactive: 74.2%
COc1ccc(S(=O)(=O)NCC2CCCN(C(=O)c3ccco3)C2)cc1 (centres undefined),"inconclusive: 9.28 µM [inhibitor, partial curve]",–
CCOC(=O)c1c(C)nc2sc3c(=O)n(-c4ccc(C(C)=O)cc4)cnc3c2c1-c1ccc(OC)cc1,–,inactive: 16.4%
Cc1ccc(S(=O)(=O)NC(C)c2ccccc2)cc1[N+](=O)[O-] (centres undefined),active: 11.7 µM,–
O=C(C[n+]1ccncc1)c1ccccc1,"inconclusive: 18.5 µM [inhibitor, single point]",–
CC(C)(C)c1ccc(S(=O)(=O)N2CCN(CCC#N)CC2)cc1,–,inactive: 12.6%
COc1cc2nc(SCC(=O)c3ccc(Br)cc3)n3nc(C)nc3c2cc1OC,–,inactive: -13%
Clc1ccc(SCCOCCN2CCCCCC2)cc1,"inconclusive: 9.28 µM [inhibitor, single point]",–
O=C(OCCOc1ccccc1Cl)c1ccc(-n2cnnn2)cc1,–,inactive: 37.2%
CNC(=O)c1cccc(NC(=O)C(C)c2ccc3cc(OC)ccc3c2)c1 (centres undefined),"inconclusive: 9.28 µM [inhibitor, partial curve]",–
O=C(N/N=C\c1ccc(Cl)cc1)C1=NOC2COC3(CCN(c4ccc([N+](=O)[O-])cc4)CC3)OCC12 (centres undefined),–,inactive: 0%
Cc1noc(C)c1COc1ccc(C(=O)NCC2CCCO2)cc1 (centres undefined),"inconclusive: 13.1 µM [inhibitor, single point]",–
COc1cc(OC)c(NS(=O)(=O)c2cc(C(=O)OCC(=O)NCC3CCCO3)ccc2OC)cc1Cl (centres undefined),"inconclusive: 10.4 µM [inhibitor, partial curve]",–
